Experiment: Electrochromic element characteristic evaluation

Compound | absorption peak wavelength in oxidation coloring (EC element, 4.0 mM) [nm] | transmittance at the absorption peak wavelength in oxidation coloring (EC element, 4.0 mM, 494 nm) [%] | transmittance over the entire visible light region (EC element immediately after production, 40.0 mM in propylene carbonate, 0.1 M tetrabutylammonium perchlorate) | absorption λmax in coloring (EC element, 40.0 mM, voltage of 1.6 V) [nm] | transmittance at λmax during voltage application (EC element, 40.0 mM, voltage of 1.6 V, 493 nm) [%]
Cc1cc(C)c(-c2cc3sc4cc(-c5cccc(-c6ccncc6)c5)sc4c3s2)c(C)c1 [Ref-1, reference compound] | 494 | 65 | – | – | –
Cc1cc(C)c(-c2cc3sc4cc(-c5cccc(-c6cc[n+](Cc7ccccc7)cc6)c5)sc4c3s2)c(C)c1 [Compound A-1] | – | – | about 80% | 493 | 1.5

Source: patent US9310660B2, “Organic compound and electrochromic element including the same” (CANON KABUSHIKI KAISHA, priority 2013, dated 2016)
